{"source": "patent US4997854A", "about": "“Anti-fibrotic agents and methods for inhibiting the activity of lysyl oxidase in-situ using adjacently positioned diamine analogue substrates” (Trustees of Boston University, priority 1989, dated 1991)", "key": {"[1]": {"assay": "Perturbation of the absorption spectrum of pyrroloquinoline quinone", "conditions": "for perturbation of the PQQ spectrum by monoamines: 5 mM, corresponding conditions; for perturbation of the PQQ spectrum: aerobic; for perturbation of the PQQ spectrum under anaerobic conditions: anaerobic / nitrogen-purged"}, "[2]": {"assay": "Release of 3H+ from [1,2-3H]DACH by limiting PQQ", "conditions": "for Ratio ^3 H^+/Oxidant / ^3 H^+ Released: 1 mM [^3 H]DACH; for ^3 H^+ Released: pH 8, 37°C, maximum level"}, "[3]": {"assay": "Release of H2O2 on oxidation of cis-DACH by limiting PQQ", "conditions": "for Ratio H2O2/Oxidant / H2O2 Released: 1 mM cis-DACH; for H2O2 Released: maximal release"}, "[4]": {"conditions": "PQQ as oxidant, mean of 4 amounts"}}, "data": [{"smiles": "CCCCCCN", "note": "[n-hexylamine, reference compound]", "values": [{"measurement": "perturbation of the PQQ spectrum by monoamines", "setting": "[1]", "result": "did not perturb"}]}, {"smiles": "NCCN", "note": "[EDA, Ethylenediamine]", "values": [{"measurement": "perturbation of the PQQ spectrum", "setting": "[1]", "result": "same spectral changes in free PQQ as was true of cis-DACH"}, {"measurement": "perturbation of the PQQ spectrum under anaerobic conditions", "setting": "[1]", "result": "markedly reduced"}]}, {"smiles": "[3H]C1(N)CCCCC1([3H])N", "note": "(centres unmarked) [[1,2-^3 H]DACH, [1,2-^3 H]-1,2-diaminocyclohexane]", "values": [{"measurement": "Ratio ^3 H^+/Oxidant", "setting": "[2]; 2.1 nanomoles PQQ", "result": 2.43}, {"measurement": "^3 H^+ Released", "setting": "[2]; 2.1 nanomoles PQQ", "result": 5.1, "unit": "Nanomoles"}, {"measurement": "Ratio ^3 H^+/Oxidant", "setting": "[2]; 4.0 nanomoles PQQ", "result": 2.30}, {"measurement": "^3 H^+ Released", "setting": "[2]; 4.0 nanomoles PQQ", "result": 9.0, "unit": "Nanomoles"}, {"measurement": "Ratio ^3 H^+/Oxidant", "setting": "[2]; 6.0 nanomoles PQQ", "result": 2.17}, {"measurement": "^3 H^+ Released", "setting": "[2]; 6.0 nanomoles PQQ", "result": 13.0, "unit": "Nanomoles"}, {"measurement": "Ratio ^3 H^+/Oxidant", "setting": "[2]; 7.5 nanomoles PQQ", "result": 2.29}, {"measurement": "^3 H^+ Released", "setting": "[2]; 7.5 nanomoles PQQ", "result": 17.2, "unit": "Nanomoles"}, {"measurement": "Ratio ^3 H^+/Oxidant, mean", "setting": "[2]; [4]", "result": "2.3 ± 0.11"}, {"measurement": "^3 H^+ released per mole of PQQ", "setting": "[2]; limiting PQQ", "result": "2.30 moles of ^3 H^+ released per mole of PQQ"}]}, {"smiles": "N[C@@H]1CCCC[C@@H]1N", "note": "[cis-DACH, 1,2-Diaminocyclohexane]", "values": [{"measurement": "perturbation of the PQQ spectrum", "setting": "[1]", "result": "markedly perturbed"}, {"measurement": "perturbation of the PQQ spectrum under anaerobic conditions", "setting": "[1]", "result": "relatively small spectral changes"}, {"measurement": "Ratio H2O2/Oxidant", "setting": "[3]; 13.2 nanomoles PQQ", "result": 1.08}, {"measurement": "H2O2 Released", "setting": "[3]; 13.2 nanomoles PQQ", "result": 14.2, "unit": "nmol"}, {"measurement": "Ratio H2O2/Oxidant", "setting": "[3]; 26.4 nanomoles PQQ", "result": 0.93}, {"measurement": "H2O2 Released", "setting": "[3]; 26.4 nanomoles PQQ", "result": 24.6, "unit": "nmol"}, {"measurement": "Ratio H2O2/Oxidant", "setting": "[3]; 52.8 nanomoles PQQ", "result": 0.97}, {"measurement": "H2O2 Released", "setting": "[3]; 52.8 nanomoles PQQ", "result": 51.2, "unit": "nmol"}, {"measurement": "Ratio H2O2/Oxidant", "setting": "[3]; 79.2 nanomoles PQQ", "result": 0.95}, {"measurement": "H2O2 Released", "setting": "[3]; 79.2 nanomoles PQQ", "result": 74.9, "unit": "nmol"}, {"measurement": "Ratio H2O2/Oxidant, mean", "setting": "[3]; [4]", "result": "0.98 ± 0.07"}]}, {"smiles": "NC1CCCCC1", "note": "[cyclohexylamine, reference compound]", "values": [{"measurement": "perturbation of the PQQ spectrum by monoamines", "setting": "[1]", "result": "did not perturb"}]}, {"smiles": "N[C@@H]1CCCC[C@H]1N", "note": "(relative stereo) [trans-DACH, 1,2-Diaminocyclohexane, reference compound]", "values": [{"measurement": "perturbation of the PQQ spectrum", "setting": "[1]", "result": "relatively little change"}]}]}
